In article doi:10.1101/2021.03.26.437179 (bioRxiv, 2021):
Results are given in words; binding and its absence hold for the method and conditions named. For some of these results: Binding calls can cover weak binding; strength is not graded here. Where a sequence is shown, tags or fusion partners need not be part of it. For some of these results: Binding seen in cells or lysates may run through a third protein.

Key:
[1] = target: T1, PUB26-ccLUC (Arabidopsis thaliana) (UniProt Q9FXA4); experiment: split reporter
T1 sequence: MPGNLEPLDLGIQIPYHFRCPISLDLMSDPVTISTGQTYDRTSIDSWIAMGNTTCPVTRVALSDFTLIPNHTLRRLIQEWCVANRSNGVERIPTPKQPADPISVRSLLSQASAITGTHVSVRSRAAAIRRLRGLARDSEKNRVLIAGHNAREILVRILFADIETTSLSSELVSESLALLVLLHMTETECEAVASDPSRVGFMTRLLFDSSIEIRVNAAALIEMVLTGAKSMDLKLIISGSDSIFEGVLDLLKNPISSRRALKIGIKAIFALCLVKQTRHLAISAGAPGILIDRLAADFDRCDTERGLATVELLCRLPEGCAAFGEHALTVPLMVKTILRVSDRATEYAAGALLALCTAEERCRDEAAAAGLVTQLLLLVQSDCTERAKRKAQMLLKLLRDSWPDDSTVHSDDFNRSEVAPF

[2] = target: T2, PUB25-ccLUC (Arabidopsis thaliana) (UniProt Q9LT79); experiment: split reporter
T2 sequence: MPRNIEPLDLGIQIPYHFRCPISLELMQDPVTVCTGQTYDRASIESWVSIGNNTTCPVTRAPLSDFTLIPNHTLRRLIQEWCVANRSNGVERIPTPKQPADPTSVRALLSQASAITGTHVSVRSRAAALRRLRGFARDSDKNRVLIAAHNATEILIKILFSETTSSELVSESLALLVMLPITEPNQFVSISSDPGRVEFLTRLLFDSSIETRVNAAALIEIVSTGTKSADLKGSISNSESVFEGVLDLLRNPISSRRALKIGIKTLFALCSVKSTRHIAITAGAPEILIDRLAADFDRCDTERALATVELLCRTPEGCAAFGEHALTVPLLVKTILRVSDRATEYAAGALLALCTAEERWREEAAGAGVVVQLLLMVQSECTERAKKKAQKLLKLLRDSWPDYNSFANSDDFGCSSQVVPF

[3] = target: T3, BD-PUB26 (Arabidopsis thaliana) (UniProt Q9FXA4); experiment: two-hybrid
T3 sequence: T1 sequence

[4] = target: T4, BD-PUB25 (Arabidopsis thaliana) (UniProt Q9LT79); experiment: two-hybrid
T4 sequence: T2 sequence

[5] = target: T5, PUB26-GFP (Arabidopsis thaliana) (UniProt Q9FXA4); experiment: co-IP
T5 sequence: T1 sequence

[6] = target: T6, PUB25-GFP (Arabidopsis thaliana) (UniProt Q9LT79); experiment: co-IP
T6 sequence: T2 sequence

HIS-PUB26 = target: T7, HIS-PUB26 (Arabidopsis thaliana, UniProt Q9FXA4 1-421); experiment: pull-down
T7 sequence (looked up): T1 sequence

[7] = target: T8, BD-At3g44110 (Arabidopsis) (UniProt Q94AW8); experiment: two-hybrid
T8 sequence: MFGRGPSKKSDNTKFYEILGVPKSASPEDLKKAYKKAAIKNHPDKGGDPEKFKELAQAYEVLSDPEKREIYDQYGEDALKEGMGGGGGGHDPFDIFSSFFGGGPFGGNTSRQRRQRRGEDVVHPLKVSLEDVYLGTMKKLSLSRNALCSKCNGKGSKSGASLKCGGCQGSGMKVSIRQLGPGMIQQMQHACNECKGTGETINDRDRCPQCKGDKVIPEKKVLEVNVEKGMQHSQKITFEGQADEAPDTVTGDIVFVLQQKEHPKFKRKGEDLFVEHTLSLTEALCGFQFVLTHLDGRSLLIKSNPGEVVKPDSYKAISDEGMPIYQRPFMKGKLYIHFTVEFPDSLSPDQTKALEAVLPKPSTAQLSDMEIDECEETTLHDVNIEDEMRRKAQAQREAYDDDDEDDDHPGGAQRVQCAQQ

GST-PUB26 [8] = target: T9, GST-PUB26 (Arabidopsis thaliana, UniProt Q9FXA4 1-421); experiment: SPR
T9 sequence (looked up): T1 sequence

GST-PUB26 [9] = target: T9, GST-PUB26; experiment: pull-down
GST-PUB25 = target: T10, GST-PUB25 (Arabidopsis thaliana, UniProt Q9LT79 1-421); experiment: pull-down
T10 sequence (looked up): T2 sequence

## VDAL-GZnLUC (Verticillium dahliae)
[1]
  binding: binds
[2]
  binding: binds

## VDAL (1-59) (Verticillium dahliae) (domain or fragment)
[3]
  binding: binds
[4]
  binding: no binding

## VDAL-MYC (Verticillium dahliae)
[5]
  binding: binds
[6]
  binding: binds

## VDAL (60-297) (Verticillium dahliae) (domain or fragment)
[3]
  binding: binds
[4]
  binding: binds

## GST-VDAL (Verticillium dahliae)
HIS-PUB26
  binding: binds

## AD-VDAL (Verticillium dahliae)
[3]
  binding: binds
[4]
  binding: binds
[7]
  binding: no binding

## VDAL-HIS (from UniProt Q6QUX8)
GST-PUB26 [8]
  binding: binds
GST-PUB26 [9]
  binding: binds
GST-PUB26 [9]; record 2
  binding: binds
GST-PUB25
  binding: binds
